Screening data

The results are deposited in PubChem (AID1159506; NCATS, 2015).

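Luminescence from an EWS-FLI1 target-promoter (NR0B1) reporter, set against a CMV-promoter reporter, two days after silencing single genes in TC32 Ewing sarcoma cells. Each siRNA was applied at 20 nM. A z-score of the log NR0B1-over-CMV signal, less the median of siRNAs with the same seed; more negative means a stronger specific loss of the NR0B1 reporter.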

The strongest results of the screen are mostly left out here. Sequences are the guide (antisense) strand, without overhang.

| siRNA | gene | seed-corrected z-score |
|---|---|---|
| `AUAGUCAUAACUCUCUUUG` | VPS29 | 1.116 |
| `AUAAUUCCCAUACUGGAAC` | MEPCE | -0.5585 |
| `UAGGAUACAAAUAAGAGAG` | SPRR3 | 0.702 |
| `AAUGGUGUAGAUGUCCUUG` | MPLKIP | 0.9179 |
| `UGUUGAAUGAGGUAUGAGC` | ZNF565 | 0.574 |
| `UUUGUAACGGCGAAUCUUC` | HDGFRP2 | -0.2044 |
| `UAUAGUCCUGUAAAGAUUC` | CDK1 | 0.296 |
| `UUUACUCUCCUUAGGAUUC` | IGFBP6 | -0.533 |
| `UGAAUAGUGAGUACCAUAG` | NBEAL1 | 0.02938 |
| `UGUAGUAAAAGGUUCGGUG` | MUC19 | 0.7542 |
| `UCUUUUUACAUAUCAGCGG` | WDR20 | 0.9688 |
| `UUCUUAAAUGUGCAGGUGC` | TRIM22 | -0.2397 |
| `UUCUUCUAGCAGGAUAUCC` | GALNT12 | -0.5888 |
| `AUCAUUUCCACAUAUGCUC` | ERICH5 | 0.2356 |
| `UUUCUUUCCAUAGUCAAGC` | CTDSPL | 0.3151 |
| `AUCCGCAUCAGUUGCACGC` | TMEM198 | -0.6739 |
| `AUCUGACCACUCCUCAUCC` | PACSIN3 | -0.7806 |
| `UUUCUCUCUCUAAUGGUGG` | BTBD3 | 0.8381 |
| `UCACAUUUGAUGUCAAUGG` | HES6 | 0.005972 |
| `UGAUGUAUGACUGAAGGUC` | ZNF525 | -1.371 |
| `AUAGUUGACUUCCCGGUCG` | PNMA6A | 0.1048 |
| `UGCAUUCUCAUGAGACUCC` | LONRF3 | 0.5989 |
| `UAAGAUCGCACAGUUCUUG` | ZAN | 0.4783 |
| `UUAUUAUCAAUUGAAGGAG` | MZT2B | 0.2021 |
| `ACAGUCACCAAUCCAUUGC` | WDR59 | 0.4278 |
| `UACUGUACAAUUGUAGCAC` | CREM | -0.06376 |
| `UUUACAACAAGGGCACAUC` | BEX1 | 1.258 |
| `UGAAGUACAUCUUAGGUUU` | ARL6IP1 | 0.8033 |
| `AUACUAGUAGUAACUUAGG` | ENPP4 | 0.05775 |
| `UUUGGGAACUUUUCCCUUC` | RPL27AP2 | -0.002685 |
| `UUAACUGCAUCAUUCGUCC` | PLCH1 | -1.713 |
| `UAUGUUGAGAAUUCGGAGG` | CSNK1E | -0.02976 |
| `UUCGUGAAGCCUUCUAUGC` | PLCH1 | 0.3306 |
| `UCUUUAUCCUCGUUGAGAC` | SUSD6 | 0.978 |
| `UUUAGUCCUUGUAUCAGUC` | PLEKHA3 | 0.9487 |
| `UCCUUAUACACUUCAUAGC` | PRKG2 | -0.4186 |
| `UUCUGUAGAACUUCGUUGU` | PKIA | -0.3001 |
| `UCCCGUAUAAAUGAUACCA` | FANK1 | 0.7858 |
| `UAAACUUCUCGAUUAUGCC` | LOXHD1 | -0.7886 |
| `UUUAUGCACAUCCAUAUUG` | STOM | -0.09259 |
| `UCAUGGGCCGUUUCACACG` | SOX3 | -0.2683 |
| `UCAUACUUCAGAUCCAGUG` | IFNLR1 | -1.267 |
| `UUGUGAAUAUUGAUGGUGU` | RPL31P31 | 0.1209 |
| `UCUUGUACCAAAACCCUUC` | GRXCR1 | 0.314 |
| `UUCAUGUAUACUUUAAGCC` | ARMCX3 | 1.659 |
| `UGUUGGUAUAUAUCUCUUC` | PRR14L | -0.3872 |
| `UUCAGUUAAAUGAACGUGG` | HEMK1 | 1.454 |
| `AUCAUGUCCAUCAUGAGCC` | CANX | 0.292 |
| `UUCUACGAAACAUUUCUGC` | CDK6 | -0.6841 |
| `UCCGUUUCCGUGAUGUAGG` | PTPN3 | 0.5313 |
| `UUGAGUACAAGGAGGAGCC` | FOXO3 | 0.2633 |
| `UAAUUAUCAAGUAUCGAUC` | SUCNR1 | 0.4342 |
| `UUUCCAUUCGGCAGUGUCG` | SSC4D | 0.4564 |
| `UUGUAUGAAAAUUGAAGGC` | ZNF19 | 0.3489 |
| `UCUUGAUCCGCUUUUUCUC` | GRK6 | -0.3587 |
| `UAUCCAUUAAGUGAUGUCG` | VPS37A | -0.324 |
| `AGAAUGUCGAUGAUCAAGG` | GIT1 | 0.1622 |
| `UAUAUAAGGAUGCACAUUC` | HOXD10 | 0.3186 |
| `UCAGUGCAGCUUGCUACGG` | TAC4 | -0.7233 |
| `UUUCUUCCUCCGCAAAGCC` | CHMP4A | -0.7754 |
| `AACUGAUCAAAAAUCGAGC` | MPP1 | -0.2203 |
| `UCUGGAUUGAGCAUCCACC` | FOXO1 | 0.7248 |
| `AACGGGCUAAUUUUGGAUG` | TLR1 | -0.08049 |
| `UGUAUAAUGAAAAACCUGC` | PCBP1-AS1 | 0.1747 |
| `AUAGGGUCAUGUUCGUAGG` | STAT1 | -0.1189 |
| `UUGUAGAAACGAGUGAUGG` | CNNM3 | 2.285 |
| `UCAUGGUUCGGGAAAUCAC` | SASH3 | 0.4638 |